# Measurements reported in PMC12040169 (PLOS Biology, 2025).
# This is one part of the list.
# System: T1, CTL2-GFP (C. trachomatis L2/434/Bu, GFP-expressing)
# T1 construct: L2/434/Bu, GFP-expressing
# Design: species or system HeLa; Intracellular C. trachomatis growth in HeLa cells, bulk GFP fluorescence relative to DMSO
# Conditions: bulk GFP, single well; 28.5 h, 10 µM; inhibitor
row,Compound,% of control remaining
1,COc1cncc(C(NC(=O)Cn2ccccc2=O)[C@H]2C[C@@H](O)C2)c1 (stereo partly shown) [CBK307557],124.826%
2,CCN1CCN(c2ccc(-c3ccc(OCC4CCN(C(=O)OC(C)(C)C)CC4)cn3)cn2)CC1 [CBK174505],114.333%
3,O=S(=O)(c1ccc(-c2ccc(S(=O)(=O)N3CCOCC3)cc2)cc1)N1CCOCC1 [CBK261366],98.0004%
4,O=C(c1cccnc1)C1CCN(C(=O)c2cc(F)cc(F)c2)CC1 [CBK283746],112.025%
5,COc1ccc([C@@]23CC[C@@H](NC(=O)Nc4ccc(F)cc4)C[C@@H]2N(C)CC3)cc1OC [CBK036458T],113.185%
6,CCOC(=O)c1sc(Sc2nnc(C(F)(F)F)n2C)c2c1CC(C)(C)CC2=O [CBK005649],112.755%
7,O=C(O)/C=C/C(=O)N(Cc1ccc2c(c1)OCO2)C1CC(=O)N(c2ccccc2)C1=O (stereo not shown) [CBK262786],99.1167%
8,Cc1cccc(NC(=S)N(CCN(C)C)Cc2cc3cc(C)cc(C)c3[nH]c2=O)c1 [CBK135105],100%
9,CC(=O)Nc1ccc(Nc2ncnc3scc(-c4ccccc4)c23)cc1 [CBK264930],100%
10,CCn1cc(C(=O)N2CCCCC2c2nc3cc(C)ccc3[nH]2)cn1 (stereo not shown) [CBK283869],115.731%
11,NC(CCCCNC(=O)c1ccccc1)C(=O)O (stereo not shown) [CBK261087],98.0439%
12,Nc1ncc(-c2ccccc2CO)nc1NC1CCOCC1 [CBK063799],176.819%
13,NC(=O)c1c(F)cccc1-c1cc(NCCO)nc2[nH]ccc12 [CBK306689],114.672%
14,CCOc1ccc(C2(C)C(=O)N(CN3CCOCC3)C(=O)N2CN2CCOCC2)cc1 (stereo not shown) [CBK261359],103.639%
15,COc1cc([C@@]23CCC(=O)C[C@@H]2N(C)CC3)ccc1OCc1ccccc1 [CBK049727],53.7124%
16,Cc1ccc(C)c(N2CCN(S(=O)(=O)c3ccc(-c4ccccc4)cc3)CC2)c1 [CBK100692],121.804%
17,O=C(CCC(F)(F)F)NCc1csc(-c2ccccc2)n1 [CBK092342],126.213%
18,O=C(CCCn1nnc2ccccc2c1=O)NCc1cccc(Cl)c1 [CBK294446],147.238%
19,Cc1ccccc1CN1CCN(CC2CC3C=CC2C3)CC1 (stereo not shown) [CBK263402],100%
20,O=C(Nc1cccc(N2CCNCC2)c1)c1cccnc1 [CBK029414T],77.5059%
21,O=S(=O)(Nc1ccc(-c2nc3cccnc3s2)cc1)c1ccccc1 [CBK287547],130.224%
22,COC(=O)c1c(NC(=O)COc2ccccc2C(C)C)sc2c1CCCC2 [CBK266722],168.526%
23,COc1cc(S(=O)(=O)NCc2ccc3c(c2)OCO3)c(OC)cc1Cl [CBK264972],100%
24,CN1C(=O)CC2(C1=O)C(=O)N(C)c1ccc(F)cc12 (stereo not shown) [CBK075290],104.267%
25,CSCCOc1nccnc1N1CCCC1 [CBK115757],97.7867%
26,O=C(NCCc1ccc(Cl)cc1)C1CCN(C(=O)CCc2ccccc2F)C1 (stereo not shown) [CBK285931],118.987%
27,COC(=O)[C@H]1CCc2ccccc2N1C(=O)C1CC1 [CBK285518],132.261%

row,Compound,% of control remaining
1,Cc1nc(CN(C)C2CCN(Cc3ccc4c(c3)CCC4)C2)no1 (stereo not shown) [CBK304052],140.086%
2,CN(CC(=O)Nc1ccccc1C(N)=O)S(=O)(=O)c1ccc(Br)cc1 [CBK268648],85.9259%
3,Cc1cc(COc2nccc(C(F)(F)F)n2)no1 [CBK115800],108.89%
4,CCc1nc2c(N3CCCn4nc(C(O)C5CC5)cc4C3)ncnc2o1 (stereo not shown) [CBK307543],144.571%
5,CN1CCc2nc(SCC(=O)c3ccc(-c4ccccc4)cc3)c(C#N)c(-c3cccs3)c2C1 [CBK267447],175.071%
6,O=C(c1ccco1)N1C2CCC1Cn1c(nc3ccccc3c1=O)C2 (stereo not shown) [CBK284452],150.078%
7,CNS(=O)(=O)CCNC(=O)N1CCCN(Cc2ccc(F)cc2)CC1 [CBK304658],129.6%
8,CC(=O)Nc1ccc(NC(=O)CN(C2CCCCC2)S(C)(=O)=O)cc1 [CBK266755],148.308%
9,Cc1ccc(-c2nc3ccccc3[nH]2)cc1NC(=O)CCCc1ccccc1 [CBK265789],148.518%
10,COc1ccc(-c2cc(C(=O)NCC3CCNCC3)cnc2-c2ccc(Cl)cc2)cn1 [CBK036700],112.242%
11,CCOc1ccsc1C(=O)Nc1c(OC)cc(F)cc1OC1CCNCC1 [CBK050292T],121.808%
12,COC(=O)[C@@H]1CN(C(=O)Nc2ccccc2)CCN1S(C)(=O)=O [CBK289611],107.782%
13,CN1CCN(S(=O)(=O)c2ccc(F)cc2)CC1 [CBK050491],106.659%
14,CCS(=O)(=O)N1CCN(C(=O)c2ccc3nc(C)c(N(CCOC)Cc4ccc(OC)cc4)n3c2)CC1 [CBK146153],185.371%
15,Cc1ccc(C(=O)C(C)OC(=O)c2cc(-c3ccccc3)nc3ccccc23)cc1 (stereo not shown) [CBK264067],96.583%
16,COc1ccc(CN2CCCC(c3nccnc3-c3cccc(NC(C)=O)c3)C2)cc1 (stereo not shown) [CBK286135],104.636%
17,COc1ccc(C(=O)c2ccc(N3CCN(C4CC(=O)NC4=O)CC3)cc2)cc1F (stereo not shown) [CBK268909],156.328%
18,CCSC1CCC(N(C)CC(=O)NCc2ccco2)C1 (stereo not shown) [CBK304823],113.448%
19,CCNC(=O)N1CC2(CCN(CCC(N)=O)CC2)c2ccccc21 [CBK144598T],103.482%
20,COc1ccc(Nc2cc(-c3cc(OC)c(OC)c(OC)c3)ncn2)c(OC)c1 [CBK090759],111.885%
21,O=S(=O)(c1ccccc1)c1cncc(N2CCNCC2)n1 [CBK051078C],114.044%
22,O=C(NC1(CN2CCCCC2)CCCCC1)NS(=O)(=O)c1ccc(Cl)cc1 [CBK022858],147.416%
23,CCC(CCO)CNc1ncnc2ccc(S(C)(=O)=O)cc12 (stereo not shown) [CBK305157],126.624%
24,COC(=O)c1cc(C)sc1NC(=S)Nc1ccccc1[N+](=O)[O-] [CBK267047],158.404%
25,Cc1cc(NC(=O)CC2CC2)c2ccccc2n1 [CBK116257],98.2177%
26,CC(=O)c1ccc(S(=O)(=O)N2CCCCC2CNC(=O)c2ccco2)cc1 (stereo not shown) [CBK051472],181.388%
27,COc1nccnc1N1CCN(CC(N)=O)CC1 [CBK084219],114.12%

row,Compound,% of control remaining
1,NC(=O)CSc1nnc(-c2ccncc2)[nH]1 [CBK026179],131.204%
2,Cc1ccc(CN2C[C@@H](N)[C@H](c3cn(C)c4cnccc34)C2)o1 [CBK285180],121.889%
3,CC(C)(C)c1ccc(/C=C/C(=O)n2cccn2)cc1 [CBK263645],132.902%
4,Cc1[nH]c2ccccc2c1C(=O)CSc1n[nH]c(N)n1 [CBK268056],121.491%
5,Nc1cccc(-c2cc(Nc3ccc(C4CCCCC4)cc3)ncn2)c1 [CBK091191],145.638%
6,OC1CCC(Nc2nc(-c3ccccc3)cn3ccnc23)CC1 (stereo not shown) [CBK037329],165.813%
7,CCC(C)(C)c1ccc(S(=O)(=O)N2CCCN(Cc3c(-c4ccccc4)noc3C)CC2)cc1 [CBK062888],103.65%
8,O=C(O)CCSc1ccnc2ccccc12 [CBK122524C],111.649%
9,O=C(CC1CCS(=O)(=O)C1)NC1(c2ccc(Cl)cc2)CC1 (stereo not shown) [CBK282773],94.2766%
10,CN1CCC(N2CCN(C(=O)c3ccc(-c4cccc(C(F)(F)F)c4)o3)CC2)CC1 [CBK149085],106.974%
11,CC1=C(C)CC(C(=O)Nc2ccc(C(=O)NCc3cccnc3)cc2)C(C(=O)O)C1 (stereo not shown) [CBK286567],133.891%
12,CCOC(=O)c1cnc(SCc2nc(N)nc(Nc3ccc(C)cc3)n2)nc1N [CBK266292],65.6688%
13,NC(=O)C1CCN(C(=S)NC2CC3C=CC2C3)CC1 (stereo not shown) [CBK085970],129.621%
14,COc1ccccc1-c1cc(Nc2ccc(N3CCOCC3)cc2)ncn1 [CBK090933],175.83%
15,Cc1cc(=O)n(CC(=O)Nc2ccc3c(c2)OCO3)cn1 [CBK287835],109.518%
16,CC(Cn1cncn1)C(=O)NC(C)C1CC2CCC1C2 (stereo not shown) [CBK282089],112.469%
17,COc1cc(NC(=O)C(C)Oc2cccc(Cl)c2)c(C(=O)O)cc1OC (stereo not shown) [CBK268470],121.901%
18,COc1cc(CNC(=O)c2cccnc2Sc2ccc(Cl)cc2)ccn1 [CBK297755],112.079%
19,CCCCOc1nccnc1-c1cnc(OC)nc1OC [CBK106756],105.961%
20,CCNc1nccnc1-c1ccccc1Cl [CBK037313],116.667%
21,CC(=O)NCCCSCc1cn2cccc(C)c2n1 [CBK304809],161.472%
22,COc1ccc(C(CNC(=O)Cn2c(-c3cccc(C)c3)n[nH]c2=S)N2CCOCC2)cc1OC (stereo not shown) [CBK297900],176.765%
23,Cc1c(C(=O)N2CCC(n3cncn3)CC2)sc2cccc(F)c12 [CBK305520],156.837%
24,COc1ccccc1C(=O)N1CCN(c2nc3c(s2)c(C)nn3C)CC1 [CBK306836],151.158%
25,COc1ccc2oc(-c3ccccc3)c(C(=O)Nc3nccs3)c2c1 [CBK287767],104.423%

# At a glance, some entries already given.
row,Compound,% of control remaining
21,CC(=O)NCCCSCc1cn2cccc(C)c2n1 [CBK304809],161.472%
22,COc1ccc(C(CNC(=O)Cn2c(-c3cccc(C)c3)n[nH]c2=S)N2CCOCC2)cc1OC (stereo not shown) [CBK297900],176.765%
23,Cc1c(C(=O)N2CCC(n3cncn3)CC2)sc2cccc(F)c12 [CBK305520],156.837%
24,COc1ccccc1C(=O)N1CCN(c2nc3c(s2)c(C)nn3C)CC1 [CBK306836],151.158%
25,COc1ccc2oc(-c3ccccc3)c(C(=O)Nc3nccs3)c2c1 [CBK287767],104.423%
